Source: PubChem BioAssay AID493014 (National Center for Advancing Translational Sciences (NCATS), 2011)
Hit rate of the full screen: of about 340,000 compounds, about 170 (0.05%) were called active. Inconclusive means that the source gave no clear call. Such entries were picked first, then a sample of the others. Calls come from the whole dose curve; as a rule, active = well fitted inhibition curve with a large enough effect in the signal ratio, with a control signal flat (not every such curve was filed as active); inconclusive = small, poorly fitted or top-dose-only effect, or effect the other way, or a change in a side signal; inactive = flat fitted curve, though single readings scatter; the % refers to the signal ratio. Potencies of inconclusive entries are doubtful fits and often do not repeat.

test: qHTS Assay to Find Inhibitors of Chronic Active B-Cell Receptor Signaling; conditions: ABC-DLBCL IkBa-CBG/CBR reporter, luminescence ratio (green luciferase fused to IkBa over red control in TMD8 lymphoma cells), 4 h; activity change, negative = inhibition: at 46.1 µM (top of the series);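 for activity change, negative = inhibition: plate controls were basal doxycycline-induced cells for no effect and cells given 10 µM MG132 for full effect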
How it was run: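 Cell line TMD8 (human ABC DLBCL), stably expressing tet-inducible CBG68-IkBa fusion and CBR; IMDM/0.5% FBS; cpd up to 46 uM; dox induction, 4 h, 37C/5% CO2; dual luminescence; green/red ratio; MG132 control.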
Potency is the fitted concentration of half-maximal effect.

| Compound | activity change, negative = inhibition | Potency |
| --- | --- | --- |
| COc1ccc(N(C)C(=O)c2cn(CC(C)C)c(=O)c3cc(OC)c(OC)cc23)c(OC)c1 | inconclusive: -8.59% |  |
| CCc1nnc(NC(=O)CSc2nnc3c(C)cc4c(C)ccc(C)c4n23)s1 |  | inconclusive: 29.1 µM [falling, partial curve, poor fit] |
| CC1CCC2(CC1)NC(=O)N(CC(=O)NC(=O)Nc1ccc3c(c1)OCCO3)C2=O (stereo not given) |  | inconclusive: 20 µM [falling, single point] |
| Cc1ccc(-c2csc3ncnc(SCC(=O)NCC4CCCO4)c23)cc1 (stereo not given) |  | inconclusive: 20.6 µM [falling, partial curve, poor fit] |
| CCOC(=O)CSc1nnc(CNC(=O)Cc2ccccc2)n1-c1ccccc1OC |  | inconclusive: 11.2 µM [falling, partial curve, poor fit] |
| COC(=O)c1sc(N2C(=O)c3oc4ccccc4c(=O)c3C2c2cccs2)nc1C (stereo not given) | inconclusive: -2.32% |  |
| O=C(Nc1ccccc1)c1cc2n(n1)C(C(F)(F)F)CC(C1CC1)N2 (stereo not given) | inconclusive: -1.88% |  |
| Cc1ccc(C(=O)Nc2ccon2)cc1S(=O)(=O)N1CCOCC1 | inactive |  |
| CC(=O)Nc1ccc(NC(=O)/C(Cl)=C/c2ccccc2)cc1 | inconclusive: 4.39% |  |
| CCOC(=O)c1cc(C)nc(SC)c1C#N |  | inconclusive: 35.5 µM [falling, partial curve, poor fit] |
| CCN1CCN(CC(O)COc2ccc3c(C)cc(=O)oc3c2)CC1 (stereo not given) | inconclusive: 1.42% |  |
| O=C(O)CC12CSc3[nH]c(=O)sc3C1c1ccccc1OC2=O (stereo not given) |  | inconclusive: 2.59 µM [rising, full curve, poor fit] |
| CC(NC(=O)OCc1ccccc1)C(=O)N1CC(O)CC1C(=O)O (stereo not given) |  | inconclusive: 1.78 µM [falling, full curve, poor fit] |
| COc1cc(SC)ccc1C(=O)Nc1cc(C)ccn1 |  | inconclusive: 35.5 µM [rising, single point] |
| CC(=O)N1CCC(N(C(=O)Nc2ccc(Cl)cc2)C(C)C)CC1 | inconclusive: 12.9% |  |
| Oc1[nH]c2ccc(Br)cc2c1N=NC(=S)NCC1CCCO1 (stereo not given) | inconclusive: 0.0871% |  |
| CCc1ccc(-n2c(=O)c3c(C)c(C(=O)N(C)C)sc3n(CC(=O)NCC3CCCO3)c2=O)cc1 (stereo not given) | inactive |  |
| CCCOc1cccc(C(=O)NCCNC(=O)c2ccccn2)c1 |  | inconclusive: 3.98 µM [falling, full curve, poor fit] |
| Cc1cc(C)cc(NC(=O)c2ccc([N+](=O)[O-])o2)c1 |  | inconclusive: 25.1 µM [falling, partial curve, poor fit] |
| O=C(NNc1nc2ccc(F)cc2s1)c1cccc(F)c1 |  | inconclusive: 35.5 µM [rising, single point] |
| Cc1ccc(NC(=O)Nc2ccccc2CC[N+](=O)[O-])cc1 |  | inconclusive: 20 µM [falling, partial curve] |
| CCOC(=O)CSc1nc(N)c(C(=O)Nc2ccc(N(C)C)cc2)s1 |  | inconclusive: 31.6 µM [falling, single point] |
| COC(=O)c1ccc(N)cc1O | inactive |  |
| Cc1[nH]c2ccccc2c1C(=O)CSc1ccccc1 | inconclusive: 8.67% |  |
| Cc1cc(C)c(C2C(C#N)=C(N)Oc3n[nH]c(C)c32)cc1CN1CCCC1 (stereo not given) | inconclusive: -1.97% |  |
| O=C(Nc1nnc(-c2ccco2)o1)c1ccc([N+](=O)[O-])s1 |  | inconclusive: 25.1 µM [falling, partial curve] |
| CN(C)C(=O)c1cc2cc(Br)ccc2s1 | inconclusive: -3.27% |  |

| Compound | activity change, negative = inhibition | Potency |
| --- | --- | --- |
| O=C(Nc1cccc(Cl)c1)N1CCc2ccccc2C1 |  | inconclusive: 15.8 µM [falling, single point] |
| CCC(Sc1ncnc2c1nnn2-c1ccc(F)cc1)C(=O)OC (stereo not given) |  | inconclusive: 15.8 µM [falling, partial curve, poor fit] |
| O=C(NNC(=S)NCC1CCCO1)c1cc(Br)ccc1Cl (stereo not given) | inconclusive: 12.8% |  |
| COC(=O)C(C)n1cnc2c(nnn2-c2ccccc2)c1=O (stereo not given) | inconclusive: 19.9% |  |
| CC(=O)Nc1ccc(Nc2ncnc3c2cnn3C)cc1 | inactive |  |
| CC(C)C(=O)Nc1cccc(NC(=O)c2cc3ccccc3o2)c1 |  | inconclusive: 0.82 µM [falling, full curve] |
| CCN(CC)C(=O)Oc1ccc2cc(Br)ccc2c1 | inconclusive: -0.285% |  |
| O=C(N/N=C/c1ccco1)c1cc(-c2ccc(Cl)cc2)n[nH]1 | inactive |  |
| CN(C(=O)COC(=O)/C=C/c1ccc2ccccc2n1)C1CCS(=O)(=O)C1 (stereo not given) |  | inconclusive: 10 µM [falling, partial curve] |
| CCCCCCOC(=O)/C=C/c1c(C)[nH]c(=O)[nH]c1=O | inconclusive: 5.51% |  |
| CCOCc1nnc(NC(=O)c2ccco2)s1 | inconclusive: 5.88% |  |
| O=C(CCc1nc2ccccc2c(=O)[nH]1)NNC(=O)c1ccc(Cl)cc1 | inactive |  |
| COc1ccc(/C=N/Nc2nc(Nc3ccccc3)nc(N3CCCCC3)n2)cc1OC | inconclusive: -0.162% |  |
| CCCCOC(=O)c1ccc(NC(=S)NC(=O)c2ccco2)cc1 | inconclusive: -0.11% |  |
| COc1ccc(C(=O)OCC(=O)NC(=O)NC2CCCC2)cc1[N+](=O)[O-] | inactive |  |
| COc1ccccc1N1CCN(C2CCCN(C(=O)c3cccc(-c4ccco4)c3)C2)CC1 (stereo not given) | inconclusive: -7.49% |  |
| O=c1nc(/C=C/c2cccn2-c2ccc([N+](=O)[O-])cc2)cc(C(F)(F)F)[nH]1 | inactive |  |
| Cc1ccc2c(c1)[C@H]1[C@H](CO2)[C@H](c2ccccc2)[C@]2(C)C(=O)Nc3ccccc3C(=O)N12 | inconclusive: 4.59% |  |
| CC(C)CC(NS(=O)(=O)OCC(Cl)(Cl)Cl)c1ccccc1 (stereo not given) |  | inconclusive: 22.4 µM [rising, single point] |
| O=C(Nc1cccc(Cl)c1)c1cc2c(=O)n3ccccc3nc2s1 | inconclusive: 0.212% |  |
| CCOCC(=O)Nc1nnc(Cc2ccc(OC)cc2)s1 |  | inconclusive: 6.51 µM [falling, single point] |
| CC1CCCC(NC(=O)COC(=O)c2cc3ccccc3oc2=O)C1C (stereo not given) | inactive |  |
| O=C(NCc1ccncc1)C(=O)NCc1ccncc1 | inactive |  |
| CCCOc1ccc(C(=O)Nc2ccc3c(c2)OCO3)cc1 | inconclusive: -3.29% |  |
| Cc1ccc(Cn2ccc(NC(=O)CCSc3nc(-c4ccco4)cc(C(F)(F)F)n3)n2)cc1 | inconclusive: 5.52% |  |
| COCCCNC(=O)c1cn(C)c(=O)c2c1c1ccccc1n2C | inconclusive: -3.9% |  |
| Cc1nc(N)sc1C(=O)N/N=C/c1ccccc1[N+](=O)[O-] | inconclusive: -18.2% |  |

| Compound | activity change, negative = inhibition | Potency |
| --- | --- | --- |
| CC(C)c1cc(C(=O)NNC(=S)NC2CCCCC2)cs1 |  | inconclusive: 1.78 µM [falling, full curve, poor fit] |
| COc1cccc(C(=O)n2c(SC)nc3cc4c(cc32)OCCO4)c1 |  | inconclusive: 8.91 µM [falling, partial curve, poor fit] |
| CC(C)(C)c1ccc(/C=C2\SC(=O)N(CCNC(=O)c3cccc(S(=O)(=O)N4CCOCC4)c3)C2=O)cc1 | inactive |  |
| Nc1ncccc1OCc1ccc(Cl)c(Cl)c1 |  | inconclusive: 25.1 µM [falling, single point] |
| CC1CCN(C(=O)CSc2nc(N)c3c4c(sc3n2)CN(C)CC4)CC1 | inconclusive: -4.77% |  |
| CC1CCc2sc(C(=O)N3CCC(C(N)=O)CC3)cc2C1 (stereo not given) | inconclusive: 1.14% |  |
| O=C(NCc1ccc(Cl)s1)c1cc(COc2c(F)cccc2F)on1 | inconclusive: 11.8% |  |
| Cc1sc2nc(COC(=O)c3ccc(O)cc3)[nH]c(=O)c2c1C |  | inconclusive: 15.8 µM [falling, partial curve] |
| O=[N+]([O-])/C=C/c1cn(Cc2ccc(F)cc2)c2ccccc12 |  | inconclusive: 20 µM [falling, partial curve] |
| COc1ccc(NC(=O)CCSc2ccc3ccccc3n2)cc1 | inconclusive: 7.71% |  |
| Cc1ccc(OCCCCN2CCC(C)CC2)c(Br)c1 | inconclusive: -13.2% |  |
| CC1=C(C(=O)Nc2cccc(C(=O)NC3CCCCC3C)c2)SCCO1 (stereo not given) | inconclusive: -16.1% |  |
| CCOC(=O)N1CCN(C(=O)CSc2nc3ccccc3c(=O)n2-c2ccccc2)CC1 | inconclusive: -1.12% |  |
| CCOC(=O)CC(NC(=O)Cn1nnc(-c2ccccc2F)n1)c1ccc(OC)cc1 (stereo not given) | inactive |  |
| O=c1c2ccccc2[nH]c(=S)n1Cc1ccccc1Cl | inactive |  |
| C/C(=N\Nc1cccc(C(F)(F)F)c1)c1ccc(O)cc1 | inconclusive: 11% |  |
| CC(C)[C@H](CN(N=O)[C@@H](Cc1ccccc1)CN(C)N=O)N(CCc1ccccc1)N=O | inactive |  |
| Fc1ccc(C2=CC(c3ccco3)n3ncnc3N2)cc1 (stereo not given) | inactive |  |
| CCCN1CCc2c(sc(NC(=O)c3ccc(S(=O)(=O)N4CCCC4)cc3)c2C(N)=O)C1 | inconclusive: -1.52% |  |
| CCc1ccc(-n2c(C)cc(/C=N/NC(=O)OC)c2C)cc1 | inactive |  |
| CC1(C)CC(=O)C(=Cc2cn(CCC#N)nc2-c2ccc(Cl)cc2)C(=O)C1 | inconclusive: -0.56% |  |
| O=C(N/N=C/c1ccco1)c1ccccc1OCc1ccccc1Cl | inconclusive: -7.91% |  |
| N#CC12CCCCC1CC1CCCCC1(C#N)N2Cc1ccccn1 (stereo not given) | inconclusive: 11.2% |  |
| CCOC(=O)c1c(-c2ccccc2)csc1NC(=O)c1cc(S(=O)(=O)N2CCOCC2)ccc1C | inconclusive: 11.6% |  |
| Cc1c(NS(C)(=O)=O)cccc1-c1nc2cccnc2s1 | inconclusive: -1.8% |  |
| OC(COc1ccc2c(c1)OCO2)CN1CCCC1 (stereo not given) | inconclusive: 1.54% |  |

Two entries from above, with bars between the fields.
Compound | activity change, negative = inhibition | Potency
CC(NC(=O)OCc1ccccc1)C(=O)N1CC(O)CC1C(=O)O (stereo not given) |  | inconclusive: 1.78 µM [falling, full curve, poor fit]
Nc1ncccc1OCc1ccc(Cl)c(Cl)c1 |  | inconclusive: 25.1 µM [falling, single point]

Two entries picked at random from the list so far, as already listed:

| Compound | activity change, negative = inhibition | Potency |
| --- | --- | --- |
| COc1ccc(NC(=O)CCSc2ccc3ccccc3n2)cc1 | inconclusive: 7.71% |  |
| CCOC(=O)CC(NC(=O)Cn1nnc(-c2ccccc2F)n1)c1ccc(OC)cc1 (stereo not given) | inactive |  |
